# Results reported in PubChem BioAssay AID2549 (National Center for Advancing Translational Sciences (NCATS), 2010).
# Protein sequences, listed by entry. Tags and fused reporters are not part of them. Lines headed by an entry give the natural chain unless they say otherwise; changes in a name come on top.
# UniProt P46063: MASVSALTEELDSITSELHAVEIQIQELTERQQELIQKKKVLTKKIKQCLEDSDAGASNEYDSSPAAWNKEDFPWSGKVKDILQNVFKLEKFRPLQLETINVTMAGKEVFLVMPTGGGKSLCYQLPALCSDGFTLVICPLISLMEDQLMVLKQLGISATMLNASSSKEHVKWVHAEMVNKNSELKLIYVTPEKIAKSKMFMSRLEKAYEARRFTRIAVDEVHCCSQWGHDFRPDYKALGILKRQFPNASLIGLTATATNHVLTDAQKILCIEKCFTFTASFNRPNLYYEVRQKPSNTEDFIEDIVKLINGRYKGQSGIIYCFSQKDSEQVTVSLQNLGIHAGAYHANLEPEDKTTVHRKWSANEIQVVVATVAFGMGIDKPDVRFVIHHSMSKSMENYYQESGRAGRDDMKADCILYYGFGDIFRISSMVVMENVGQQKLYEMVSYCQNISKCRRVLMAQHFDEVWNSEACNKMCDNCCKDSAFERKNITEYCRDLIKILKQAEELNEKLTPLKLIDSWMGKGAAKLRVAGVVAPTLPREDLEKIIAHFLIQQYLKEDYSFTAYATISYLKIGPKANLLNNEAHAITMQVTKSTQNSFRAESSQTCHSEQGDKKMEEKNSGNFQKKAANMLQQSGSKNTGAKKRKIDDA
# Where “and” joins values, the source holds several entries; their conditions need not be identical. Equal values may be shown once. About 1,300 (0.54%) of roughly 240,000 compounds were called active. This list was built around the results that the source calls inconclusive (neither active nor inactive); the mix of calls is not that of the screen. The call rests on the fitted dose curve; in most records, active means well fitted inhibition curve with a large enough effect; inconclusive means small, poorly fitted or top-dose-only effect; inactive means flat fitted curve, though single readings scatter. Potencies beside an inconclusive call are fits to weak or partial responses and may not hold up. Some structures have more than one record in an assay (separate samples or runs), and their calls can disagree.
# Target: ATP-dependent DNA helicase Q1 (Homo sapiens) (UniProt P46063)
# Assay: qHTS Assay for Inhibitors of RecQ-Like Dna Helicase 1 (RECQ1); further: nearly all actives have a fitted effect of over 30% in size;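 on activity, negative = inhibition: plate controls were vehicle for no effect and no enzyme for full effect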
# Details: RECQ1 DNA unwinding, red fluorescence kinetic read; activity, negative = inhibition: at 57.3 µM (top of the series); series mostly up to 57.3 µM
# Summary of the method: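 50 nM RECQ1T1 preincubated 15 min with compound in Tris pH 8.0 buffer with MgCl2, DTT, Tween-20 and 2.5 ug/ml poly(dI-dC); started with 200 nM TAMRA/BHQ-2 forked duplex and 2 mM ATP. Unwinding read as fluorescence (525/598 nm), two reads 2 h apart.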
# Potency means the concentration at half of the fitted maximal effect.
SMILES,Potency,"activity, negative = inhibition",outcome
COc1cccc(-c2csc(N3CCN(S(=O)(=O)c4ccc(F)cc4)CC3)n2)c1,"inconclusive: 31.6 µM [inhibitor, partial curve]",–,–
COc1ccccc1-n1cnnc1SCC(=O)c1cc(C)n(Cc2cccs2)c1C,"inconclusive: 35.5 µM [inhibitor, single point]",–,–
CCN1/C(=C/C(=S)Nc2ccccc2)Sc2ccccc21,"inconclusive: 25.1 µM [inhibitor, partial curve]",–,–
Nc1cc(-c2ccncc2)c[nH]c1=O,"inconclusive: 15.8 µM [inhibitor, single point] and inconclusive: 39.8 µM [inhibitor, single point]",–,–
C/C=C\C=C\C(=O)N1CC2(CC(c3cccc(NC(=O)/C(C)=C\C)c3)=NO2)C[C@H]1C(N)=O (stereo partly drawn),active: 20 µM,–,–
COc1cc2oc(=O)c3c4c(cc5ccc(c1CCN(C)C)c2c53)OCO4,"inconclusive: 6.31 µM [inhibitor, single point]",–,–
CCOC(=O)C(C(=O)NCc1ccc(C)cc1)c1ncc(C(F)(F)F)cc1Cl (stereo not drawn),"inconclusive: 6.31 µM [inhibitor, single point]",–,–
Cc1ccc(NC(=S)N(CCN2CCCCC2)Cc2ccco2)cc1C,"inconclusive: 3.55 µM [inhibitor, partial curve]",–,–
Cc1c(O)c(O)cc2c1oc1c3ccccc3oc(=O)c21,"inconclusive: 11.2 µM [inhibitor, partial curve]",–,–
O=C(/C=C/c1ccco1)Nc1cccc2cccnc12,"inconclusive: 31.6 µM [inhibitor, single point]",–,–
COc1ccc(Nc2ccc(OC)cc2)cc1,active: 5.62 µM,–,–
N[C@@H](CO)c1nnc([C@H](CCC(=O)O)NC(=O)C2CCNCC2)o1,–,inactive: -8.88%,–
O=C(Nc1ccc(Cl)c(Cl)c1)Nc1cc(S(=O)(=O)N2CCOCC2)ccc1N1CCCC1,"inconclusive: 31.6 µM [inhibitor, partial curve]",–,–
CSc1ccccc1NC(=O)c1noc2c1CCC2,"inconclusive: 35.5 µM [inhibitor, single point]",–,–
COc1cc2[nH]c3c(N4CCN(c5ccccn5)CC4)ncnc3c2cc1OC,"inconclusive: 25.1 µM [inhibitor, single point]",–,–
O=C(COc1cccc2ccccc12)N1CCN(c2ccccn2)CC1,"inconclusive: 3.55 µM [inhibitor, partial curve]",–,–
CC([NH2+][O-])C(C)(C)NO (stereo not drawn),"inconclusive: 39.8 µM [inhibitor, partial curve, poor fit]",–,–
CCN(CC)CCNc1ncnc2c1sc1nc(N3CCCC3)c3c(c12)CC(C)(C)OC3,"inconclusive: 39.8 µM [inhibitor, single point]",–,–
COc1ccc(-c2nc3cnc(N4CCNCC4)nc3n(Cc3cccc(OC)c3)c2=O)cc1,"inconclusive: 35.5 µM [inhibitor, single point]",–,–
Nc1ccc(C(=O)Nc2nccs2)cc1,"inconclusive: 6.31 µM [inhibitor, single point]",–,–
Cc1ccccc1-c1coc2cc(O)ccc2c1=O,–,inactive: 5.17%,–
O=C(COC(=O)c1cc2c(s1)CCC2)Nc1ccc(F)cc1,active: 22.4 µM,–,–
CC(=O)Oc1ccccc1N1C(=O)c2ccc(C(=O)O)cc2C1=O,"inconclusive: 0.794 µM [inhibitor, full curve]",–,–

# Looked up by structure from above:
SMILES,Potency,"activity, negative = inhibition",outcome
Cc1c(O)c(O)cc2c1oc1c3ccccc3oc(=O)c21,"inconclusive: 11.2 µM [inhibitor, partial curve]",–,–
Nc1ccc(C(=O)Nc2nccs2)cc1,"inconclusive: 6.31 µM [inhibitor, single point]",–,–
N[C@@H](CO)c1nnc([C@H](CCC(=O)O)NC(=O)C2CCNCC2)o1,–,inactive: -8.88%,–
Nc1cc(-c2ccncc2)c[nH]c1=O,"inconclusive: 15.8 µM [inhibitor, single point] and inconclusive: 39.8 µM [inhibitor, single point]",–,–
CC(=O)Oc1ccccc1N1C(=O)c2ccc(C(=O)O)cc2C1=O,"inconclusive: 0.794 µM [inhibitor, full curve]",–,–

# More structures.

SMILES,Potency,"activity, negative = inhibition",outcome
COc1ccc(N2CCN(C(CNC(=O)c3ccco3)c3cccnc3)CC2)cc1 (stereo not drawn),"inconclusive: 0.891 µM [inhibitor, full curve]",–,–
CC1(C)CC(=O)C2=C(C1)c1c(ccc3ncccc13)NC2c1cccs1 (stereo not drawn),"inconclusive: 3.16 µM [inhibitor, full curve]",–,–
CCN(CC)c1ccc(N)cc1,"inconclusive: 28.2 µM [inhibitor, partial curve, poor fit]",–,–
Cc1nc(S/C(=C\c2ccc(-c3ccc(C(=O)O)c(Cl)c3)o2)C(=O)O)n[nH]1,"inconclusive: 39.8 µM [inhibitor, single point]",–,–
CC(C)CSC1=NSC2=NC(=O)/C(=C\c3coc4ccccc4c3=O)C(=N)N12,"inconclusive: 39.8 µM [inhibitor, single point]",–,–
CSc1nc(SCCO)c2sc3nc(-c4ccco4)c4c(c3c2n1)CC(C)(C)OC4,active: 12.6 µM,–,–
COc1ccc(-c2noc(CN(C)S(=O)(=O)c3ccc(C)cc3)n2)cc1,"inconclusive: 35.5 µM [inhibitor, partial curve]",–,–
O=C(CS(=O)(=O)c1cccc(C(F)(F)F)c1)Nc1ccccc1Cl,"inconclusive: 0.112 µM [inhibitor, full curve]",–,–
Cc1ccc(C(=O)C2Oc3ccccc3C3CC(c4ccc(C)cc4)=NN23)cc1 (stereo not drawn),"inconclusive: 39.8 µM [inhibitor, single point]",–,–
CC(C)[C@H](NC(=O)[C@H](CCC(N)=O)NC(=O)CNC(=O)[C@@H]1CCCN1C(=O)[C@H](Cc1ccc(O)cc1)NC(=O)CN)C(=O)O,–,inactive: -17.5%,–
COc1ccc(-n2c(Cc3cccn3C)nnc2SCC(=O)Nc2ccc(C(C)=O)cc2)cc1,active: 22.4 µM,–,–
CCc1ccccc1N1CSC2=C(C#N)C(c3cc(OC)c(OC)cc3OC)CC(=O)N2C1 (stereo not drawn),–,inactive: 2.14%,–
CC(=O)NN1C(=O)/C(=C\c2ccc(O)cc2)SC1=S,"inconclusive: 31.6 µM [inhibitor, single point]",–,–
CCOC(=O)C1=C(CSc2nc(-c3ccccc3)ccc2C#N)OC(N)=C(C#N)C1c1ccccc1 (stereo not drawn),active: 22.4 µM,–,–
O=S(=O)(Nc1ccccc1O)c1ccc(-c2ccccc2)cc1,"inconclusive: 39.8 µM [inhibitor, single point]",–,–
CCN(CC)c1ccc(/C=C/C(=O)C2C(=O)C=C(C)OC2=O)cc1 (stereo not drawn),active: 15.8 µM,–,–
O=C(/C=C/c1ccc(O)cc1)OC[C@H]1O[C@@H](Oc2c(-c3ccc(O)cc3)oc3cc(O)cc(O)c3c2=O)[C@H](O)[C@@H](O)[C@@H]1O,–,inactive: 9.71%,–
CN1\C(=C/C=C/C=C/C=[N+](C)C)C(C)(C)c2ccccc21,active: 25.1 µM,–,–
O=C(Nc1nc2ccc(SC(F)F)cc2s1)c1ccc(NS(=O)(=O)c2ccc(F)c(F)c2)cc1,"inconclusive: 35.5 µM [inhibitor, single point]",–,–
CNC(=O)c1ccccc1NC(=O)c1c(O)c2c([nH]c1=O)CCCC2,"inconclusive: 0.794 µM [inhibitor, single point]",–,–
CCCCCn1c(CN2CCCCC2CC)nc2c1c(=O)n(C)c(=O)n2C (stereo not drawn),"inconclusive: 0.199 µM [inhibitor, full curve]",–,–
CNc1nc2c(N)ncnc2n1[C@@H]1O[C@@H]2COP(=O)(O)O[C@H]2[C@H]1O,–,inactive: -12.4%,–
CCc1nn2cc(-c3ccccc3)nc2s1,"inconclusive: 0.891 µM [inhibitor, single point]",–,–

SMILES,Potency,"activity, negative = inhibition",outcome
Cc1ccc2nc(-c3ccncc3)cc(-c3ccccc3)c2c1,"inconclusive: 0.282 µM [inhibitor, full curve]",–,–
C=C(C)C(=O)Nc1cccc(C2=NOC3(C2)C[C@@H](C(N)=O)N(C(=O)c2ccc(Cl)cc2)C3)c1 (stereo partly drawn),active: 12.6 µM,–,–
CC1C(=O)C(C)C(c2ccc([N+](=O)[O-])cc2)NC1c1ccc([N+](=O)[O-])cc1 (stereo not drawn),"inconclusive: 39.8 µM [inhibitor, single point]",–,–
O=C(O)c1ccc(N/N=C/c2cn(Cc3ccc(F)cc3)c3ccccc23)cc1,–,inactive: -6.09%,–
NCCc1nnc(SCc2ccccc2Cl)o1,"inconclusive: 0.1 µM [inhibitor, full curve, poor fit]",–,–
CC(C)CC1=NN2C(=N)/C(=C\c3coc4ccccc4c3=O)C(=O)N=C2S1,"inconclusive: 39.8 µM [inhibitor, single point]",–,–
CCCCC1=CC2=C(c3ccco3)C(=O)C(C)(OC(=O)c3ccc(OC)cc3)C(=O)C2=CN1Cc1ccco1 (stereo not drawn),active: 6.31 µM,–,–
O=C(O)c1cc(N(Cc2ccccc2O)Cc2ccccc2O)ccc1O,"inconclusive: 25.1 µM [inhibitor, single point]",–,–
Cc1ccc(NC(=O)C(OC(=O)c2ccc(O)cc2)c2ccccc2)cc1Cl (stereo not drawn),"inconclusive: 28.2 µM [inhibitor, partial curve]",–,–
COc1ccc(C)cc1S(=O)(=O)Nc1ccncc1,active: 20 µM,–,–
COc1ccc(-c2nnc(NC(=O)c3ccc(F)cc3)o2)cc1,"inconclusive: 7.08 µM [inhibitor, single point]",–,–
CC(C)c1ccc(NC(=O)C[n+]2ccn(C3=C([O-])c4ccccc4C3=O)c2)cc1,–,–,inactive
Cn1c(=O)cc2c3c(c(N4CCCCC4)ccc31)C(=O)c1ccccc1-2,–,inactive: -17.1%,–
O=S(=O)(c1ccc2nc(-c3ccco3)c(-c3ccco3)nc2c1)N1CCOCC1,active: 31.6 µM,–,–
Nc1nc(Sc2ccc(C(F)(F)F)cn2)n[nH]1,"inconclusive: 7.08 µM [inhibitor, single point]",–,–
Cc1ccc(C(=O)OCC(=O)NCc2ccco2)s1,active: 12.6 µM,–,–
CCN1CCN(C(=O)Nc2ccccc2OC)CC1,–,inactive: 1.56%,–
CO[C@H]1COC(=O)C/C=C\[C@H](C)COC(=O)[C@@H](C)NC(=O)C/C=C\[C@@H]1C,–,inactive: 16.7% [at 11.5 µM],–
COc1cc2cc3c4c(cc(OC)c(OC)c4c2cc1OC)CCN3C,active: 11.2 µM,–,–
O=C1OC(c2cccs2)=N/C1=C/c1ccc(-c2cccc(C(=O)O)c2)o1,"inconclusive: 44.7 µM [inhibitor, single point]",–,–
CC(=O)Nc1ccc2ccccc2c1,–,inactive: -2.17%,–
COC(=O)C1=C(C)N(CCCC(=O)O)C(=O)NC1c1cc2c(cc1[N+](=O)[O-])OCO2 (stereo not drawn),"inconclusive: 35.5 µM [inhibitor, single point]",–,–
